Assay results: PMC5803261
No constants are given. Whether binding was seen depends on the method and setting. In cells and extracts the contact can be indirect. Some binding calls cover weakened binding; strength is not graded here.

Chains of the proteins cited; added tags and fusions are not shown.
UniProt P31750: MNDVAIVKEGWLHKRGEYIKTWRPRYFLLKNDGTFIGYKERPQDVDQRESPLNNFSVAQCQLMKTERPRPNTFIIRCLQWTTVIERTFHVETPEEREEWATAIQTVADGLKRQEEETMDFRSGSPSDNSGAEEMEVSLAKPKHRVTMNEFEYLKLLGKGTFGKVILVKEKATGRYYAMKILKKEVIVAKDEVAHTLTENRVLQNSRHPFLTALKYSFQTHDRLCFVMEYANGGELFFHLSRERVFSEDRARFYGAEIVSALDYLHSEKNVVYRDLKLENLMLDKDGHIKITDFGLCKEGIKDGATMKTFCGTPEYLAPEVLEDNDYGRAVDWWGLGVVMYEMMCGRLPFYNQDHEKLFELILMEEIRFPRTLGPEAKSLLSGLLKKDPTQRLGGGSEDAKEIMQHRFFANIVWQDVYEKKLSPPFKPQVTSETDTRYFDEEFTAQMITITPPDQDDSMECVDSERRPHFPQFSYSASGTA
UniProt P26043: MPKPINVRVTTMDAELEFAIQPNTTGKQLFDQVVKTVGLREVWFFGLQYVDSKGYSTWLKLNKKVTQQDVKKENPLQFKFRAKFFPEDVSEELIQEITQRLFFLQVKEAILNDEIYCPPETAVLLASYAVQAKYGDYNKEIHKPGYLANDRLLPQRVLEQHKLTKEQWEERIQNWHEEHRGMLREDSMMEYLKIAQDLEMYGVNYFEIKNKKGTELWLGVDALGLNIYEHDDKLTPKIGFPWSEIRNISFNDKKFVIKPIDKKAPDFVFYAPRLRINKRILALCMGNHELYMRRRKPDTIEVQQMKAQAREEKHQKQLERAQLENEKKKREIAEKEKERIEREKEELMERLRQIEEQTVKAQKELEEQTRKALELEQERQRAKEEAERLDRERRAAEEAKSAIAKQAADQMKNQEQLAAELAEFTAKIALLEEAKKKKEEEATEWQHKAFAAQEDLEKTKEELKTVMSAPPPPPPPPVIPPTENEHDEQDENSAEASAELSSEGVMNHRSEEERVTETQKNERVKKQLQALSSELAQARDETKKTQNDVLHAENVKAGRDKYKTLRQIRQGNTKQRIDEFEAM

Molecular target: Akt (Akt1), endogenous in P7 mouse brain lysate (mouse (endogenous in P7 mouse brain)) (UniProt P31750)
Test: co-IP; P7 mouse brain lysates, immunoprecipitation with anti-Akt antibody or normal IgG, blot with anti-Akt and anti-radixin

radixin, endogenous in P7 mouse brain lysate (from UniProt P26043 1-583)
binding: binds
